This is one part of the list. No stated cut-off is given here; in the data, active = 2 or more and inactive = the rest. Single values are uncertain here, since repeats match poorly.
Each compound was assayed on Lgr5 (MarsCy1-Lgr5-EGFP, U2OS) (assay: cell-surface Lgr5 expression (SCi1 fluorescence, background-subtracted) relative to WT DMSO (fold of DMSO control); higher = more Lgr5 at the plasma membrane). Conditions: U2OS MarsCy1-Lgr5-EGFP stable; treatment time: overnight; library: ActiProbe-5K (TimTec); 25 µM.

Compound | cell-surface Lgr5 expression
Cn1ncc([N+](=O)[O-])c1C(=O)O | inactive: 1.18
NS(=O)(=O)c1ccc2c(c1)C1C=CCC1C(c1cccc3ccccc13)N2 (stereo not drawn) | inactive: 0.678
N=c1[nH]c(-c2ccc3c(c2)OCCO3)cs1 | inactive: 1.15
CC(C)(C)Sc1cc(C(=O)O)sc1C(=O)O | inactive: 1.03
Cl.N#CC1=C(O)SC(N)=C2C(=N)n3cccc3C12 (stereo not drawn) | inactive: 1.22
c1ccc(-c2nc(SCC3COc4ccccc4O3)oc2-c2ccccc2)cc1 (stereo not drawn) | inactive: 1.03
CN(C)c1nc(N)nc(CSCCCCCCCCSCc2nc(N)nc(N(C)C)n2)n1 | inactive: 1.09
CC1(C)NC(C)(C)/C(=N/O)C(=NO)/C1=N\O | inactive: 1.23
C1=CCC(CN2CCN(Cc3ccco3)CC2)CC1 (stereo not drawn) | inactive: 1.33
N=C1SCC(=O)N1c1nonc1NC=O | inactive: 1.09
COc1ccc(-c2nc(-c3ccc(F)cc3)c[n+]3ccc4cc(OC)c(OC)cc4c23)cc1OC | inactive: 1.3
O=C(NCCO)C12CC3CC(CC(C3)C1)C2 | inactive: 1.23
Nn1c(SCc2ccccc2Br)nnc1C(F)(F)F | inactive: 0.967
Cc1ccc2c(c1)C1C(=C(N)O2)C(N)=Cc2ccc(Br)cc21 (stereo not drawn) | inactive: 1.24
Cn1c(-c2ccccc2)c(-c2ccccc2)[nH]c1=S | inactive: 0.836
c1cc(COc2ccc3c(c2)OCO3)no1 | inactive: 1.12
COc1nc(N/N=C/c2cc(OC)c(OC)c(OC)c2)nc(N2CCOCC2)n1 | inactive: 1.13
O=S(=O)([O-])c1ccc(-c2nnc(-c3ccccn3)nc2-c2ccc(S(=O)(=O)[O-])o2)o1 | inactive: 1.22
Nn1c(S)nnc1Cc1ccc2c(c1)OCO2 | inactive: 1.25
CCCCCCCCCCn1c(SCCC(C)C)nc2c1c(=O)[nH]c(=O)n2C | inactive: 1.1
COCc1[nH]nc2c1C1(CCC3(CC1)OCCO3)C(C#N)=C(N)O2 | inactive: 1.16
O=[N+]([O-])c1ccc(/C=N\Nc2nc3ccccc3s2)s1 | inactive: 1.36
Cn1ncc([N+](=O)[O-])c1C(=O)NNC(=S)NC1CCCC1 | inactive: 1.19
CCCCCCCCCCOC[N+](CC)(CC)c1ccccc1.[Cl-] | inactive: 1.48
Cc1nc2c(o1)NC(N)=C(C#N)C21CCCCC1 | inactive: 1.23
O=S1(=O)CCC(/N=C/c2ccc(-c3cccc(C(F)(F)F)c3)o2)C1 (stereo not drawn) | inactive: 1.17

Rewritten in markdown: entries from further up.

| Compound | cell-surface Lgr5 expression |
| --- | --- |
| CC1(C)NC(C)(C)/C(=N/O)C(=NO)/C1=N\O | inactive: 1.23 |
| C1=CCC(CN2CCN(Cc3ccco3)CC2)CC1 (stereo not drawn) | inactive: 1.33 |
| COc1nc(N/N=C/c2cc(OC)c(OC)c(OC)c2)nc(N2CCOCC2)n1 | inactive: 1.13 |

(next part)

Compound | cell-surface Lgr5 expression
CS(=O)(=O)N1CCc2ccccc21 | inactive: 1.33
CC(=O)[C@@]12OC1CC1C3CCC4=CC(=O)CCC4(C)C3CCC12C (stereo partly drawn) | inactive: 1.22
c1ccc(-c2cc(-c3ccccc3)c3nncn3n2)cc1 | inactive: 1.26
COc1ccc(OC)c(/N=C\c2cc(Br)cc(Br)c2O)c1 | inactive: 0.908
O=C(O)CCN1CCN(CCO)CC1 | inactive: 1.09
O=[N+]([O-])c1ccc(/C=N\c2ccc(Cl)c([N+](=O)[O-])c2)s1 | active: 2.64
Cl.NC(N)=NN=C(/C=C\c1ccc([N+](=O)[O-])o1)/C=C\c1ccc([N+](=O)[O-])o1 | inactive: 0.428
CCOC(=O)C1=C(N)n2c(s/c(=C/c3ccco3)c2=O)=C(C(=O)OCC)C1c1ccco1 (stereo not drawn) | inactive: 1.16
Nc1nc(CSc2ncnc3[nH]cnc23)nc(Nc2ccccc2)n1 | inactive: 1.56
Cc1nn(C)cc1C(=O)CC(=O)C(F)(F)F | inactive: 0.838
Cc1nnc(NC(=O)C(C)n2nc(C(F)(F)F)c(Cl)c2C)s1 (stereo not drawn) | inactive: 1.25
O=c1[nH]c2ccc(S(=O)(=O)N3CCOCC3)cc2[nH]1 | inactive: 1.1
c1ccc2oc(SCCSc3nc4ccccc4o3)nc2c1 | inactive: 0.93
O=S(=O)([O-])c1cc(O)c2c(O)c(/N=N\c3ccccc3)c(S(=O)(=O)[O-])cc2c1.[Na+].[Na+] | inactive: 1.29
CN(C)CCCNS(=O)(=O)c1ccc(Cl)cc1 | inactive: 1.17
CC1(C)CC(=O)C(C(C2=C(O)CC(C)(C)CC2=O)c2ccc([N+](=O)[O-])s2)C(=O)C1 (stereo not drawn) | inactive: 1.22
Nc1nnc(-c2ccc(Br)o2)s1 | inactive: 0.918
C=CCn1c(S)nnc1COc1ccccc1 | inactive: 1.1
OC1(C(F)(F)F)CC(/C=C\c2ccccc2)=NO1 (stereo not drawn) | inactive: 1.36
O=Cc1csc2ccc(Cl)nc12 | inactive: 1.21
N#Cc1ccc2c(c1)COC2(c1ccc(F)cc1)c1ccc(F)cc1 | inactive: 1.12
Cc1nn(Cc2c(C)nn(C)c2C)c(C)c1N | inactive: 1.31
O=C(O)CCCCCNC(=O)c1cc(=O)[nH]c(=O)[nH]1 | inactive: 1.13
COc1ccc(SSc2ccc(OC)cc2[N+](=O)[O-])c([N+](=O)[O-])c1 | inactive: 1
Cc1ccc2c(C)cc(Cl)nc2c1C | inactive: 1.34
COc1ccc(OCC2(N)CC2)cc1.Cl | inactive: 1.05

Compound | cell-surface Lgr5 expression
Sc1nc2cc(Cc3ccc4[nH]c(S)nc4c3)ccc2[nH]1 | inactive: 1.53
COCCOC(=N)/C(C#N)=C/Oc1ccc(F)cc1 | inactive: 0.949
CC(C)(C)OC(=O)N[C@@H](Cc1c[nH]cn1)C(=O)O | inactive: 1.2
COc1nc(N2CCCC2)nc(-n2nnc(C(C)=O)c2C)n1 | inactive: 1.15
CC(=O)OCC1OC(n2cnc3c(=O)[nH]c(N)nc32)C(OC(C)=O)C1OC(C)=O (stereo not drawn) | inactive: 1.14
Brc1ccc2sc3ccccc3c2c1 | inactive: 1.19
Fc1ccc(NCn2nnc3ccccc32)c(F)c1F | inactive: 1.17
O=C1CCCCC1CCCCCCCCCCCO (stereo not drawn) | inactive: 1.22
COC(=O)c1c(NC(=O)C2CC2)sc2c1CCCC2 | inactive: 1.04
CC(C)(C)N(CCC#N)C(=O)N1CCNC1=O | inactive: 1.5
COCc1c(C(=O)OC)nnn1-c1nonc1N | inactive: 1.24
CCCCCCc1nn(-c2ccccc2)[n+](-c2ccccc2)n1.[Cl-] | inactive: 1.18
CN1C(=O)/C(=C2\SC(=S)N(CCS(=O)(=O)O)C2=O)c2ccccc21 | inactive: 1.41
CCOC(=O)C1=C(C2CC=CCC2)NC(=S)NC1C (stereo not drawn) | inactive: 1.14
C1CN(c2nc(-c3nn[nH]n3)nc(N3CCOCC3)n2)CCO1 | inactive: 1.19
CC(=O)CC12CC3CC(CC(Br)(C3)C1)C2 | inactive: 1.24
CC(C)c1ccc2c(c1)CCC1C(C)(C#N)CCCC21C (stereo not drawn) | inactive: 1.16
CC(C)(C)c1ccc(-c2nn(CN3CCC(c4ccccc4)C3)c(=S)n2-c2ccccc2)cc1 (stereo not drawn) | inactive: 1.1
COc1cc(NS(C)(=O)=O)c(OC)cc1Cl | inactive: 1.02
Cc1nccn1CCC1CCNCC1 | inactive: 0.944
C/C(=N/NC(=O)c1nn(C)c(C)c1Br)c1ccnn1C | inactive: 1.07
NNC(=O)c1cc(C23CC4CC(CC(C4)C2)C3)n[nH]1 | inactive: 0.863
CC1(C)Cc2c(c(N3CCOCC3)nc3sc4c(NN)nnnc4c23)CO1 | inactive: 1.3
N#Cc1cc2c(=O)n3ccccc3nc2n(Cc2ccco2)c1=N | inactive: 0.86
Cn1ccnc1/C=N\Nc1ccc(F)cc1 | inactive: 1.03
NNC(=O)C1CCCCC1 | inactive: 1.1

Compound | cell-surface Lgr5 expression
CCOC(=O)c1sc(N2N=C(C)/C(=C/c3ccc(C)s3)C2=O)nc1C | active: 2.09
N#Cc1cc2c(nc1N)sc1c(O)cc(O)nc12 | inactive: 1.25
c1ccc2[nH]c(CCCc3nc4ccccc4[nH]3)nc2c1 | inactive: 1.35
O=S(=O)([O-])CCC[N+]1(CC#Cc2ccccc2)CCCCC1 | inactive: 1.09
CC12CC3CC(C)(C1)CC(CC(=O)O)(C3)C2 | inactive: 1.4
Nc1n[nH]c(N)c1/N=N\c1ccccc1 | inactive: 1.11
O=c1[nH]/c(=C/c2ccco2)c(=O)[nH]/c1=C\c1ccco1 | inactive: 0.818
C=CCC(NCc1cccs1)c1ccco1 (stereo not drawn) | inactive: 1.3
N#Cc1c(N)sc2c1CCCC2 | inactive: 1.27
c1coc(C2NCCc3sccc32)c1 (stereo not drawn) | inactive: 1.23
S=C(CC(=S)N1CCOCC1)N1CCOCC1 | inactive: 1.48
O=C(O)CCN1C(=O)/C(=C2/C(=O)Nc3ccc(Br)cc32)SC1=S | inactive: 1.66
N(=C1/C=CC(C=C1)=O)/c1ccc(cc1)N(C)C | inactive: 1.15
NS(=O)(=O)c1ccc(NS(=O)(=O)c2ccc(NC(=S)Nc3ccccc3)cc2)cc1 | inactive: 1.23
COc1ccc(OC)c(NS(=O)(=O)c2cc(Cl)ccc2Cl)c1 | inactive: 1.16
CC1(C)OC(=O)N(CCc2cccs2)C1(C)O (stereo not drawn) | inactive: 1.08
O=S(=O)(N[C@@H]1C[C@H]2CC[C@@H]1C2)c1ccc(Cl)cc1 | inactive: 1.15
O=S(=O)([O-])c1cc(O)c(/N=N/c2c(O)ccc3ccccc23)c2ccccc12.[Na+] | inactive: 1.29
Cc1c2c(nc3ccccc13)OC(C)C2 (stereo not drawn) | inactive: 0.927
O=C(CSc1nnc[nH]1)N1CCOCC1 | inactive: 1.34
Cc1nnnn1-c1cc2c(s1)CCCC2 | inactive: 1.36
S=C(c1ccc(C(=S)N2CCOCC2)cc1)N1CCOCC1 | inactive: 1.31
C(CC(N\N=C1/CCCC1)=O)(NC(C)C)=O | inactive: 1.18
Cc1c(Cl)c(O)nc2nnc(C(F)(F)F)n12 | inactive: 0.999
CC(C)C(=O)N(C)C1CCCCC1 | inactive: 1.06

Four consecutive records from above, for reference:
Compound | cell-surface Lgr5 expression
N#Cc1c(N)sc2c1CCCC2 | inactive: 1.27
c1coc(C2NCCc3sccc32)c1 (stereo not drawn) | inactive: 1.23
S=C(CC(=S)N1CCOCC1)N1CCOCC1 | inactive: 1.48
O=C(O)CCN1C(=O)/C(=C2/C(=O)Nc3ccc(Br)cc32)SC1=S | inactive: 1.66

— the supplement of paper PMC4683952
